Measured values reported in PMC11094025.
Results are given in words; binding and its absence hold for the method and conditions named. Binding seen in cells or lysates may run through a third protein. These calls come from enrichment with a bait or labelling near it, and not all partners need be listed.

Protein sequences, listed by entry. Tags and fused reporters are not part of them. Residues count along the entry.
UniProt O95292, residues 7-124: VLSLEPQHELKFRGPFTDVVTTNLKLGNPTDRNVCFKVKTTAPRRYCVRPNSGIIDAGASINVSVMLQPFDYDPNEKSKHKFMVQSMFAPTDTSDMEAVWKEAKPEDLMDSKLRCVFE
UniProt O14965: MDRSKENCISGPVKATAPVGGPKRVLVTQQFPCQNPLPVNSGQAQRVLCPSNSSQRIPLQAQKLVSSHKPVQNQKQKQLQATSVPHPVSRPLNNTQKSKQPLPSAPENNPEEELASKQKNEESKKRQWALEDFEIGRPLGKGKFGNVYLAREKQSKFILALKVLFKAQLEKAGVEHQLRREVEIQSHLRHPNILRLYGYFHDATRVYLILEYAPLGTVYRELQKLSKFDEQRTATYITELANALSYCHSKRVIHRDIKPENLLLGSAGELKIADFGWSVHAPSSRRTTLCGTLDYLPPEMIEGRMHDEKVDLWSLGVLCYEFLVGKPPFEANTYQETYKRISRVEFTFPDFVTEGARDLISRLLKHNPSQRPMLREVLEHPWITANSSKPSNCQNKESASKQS
UniProt Q96GD4: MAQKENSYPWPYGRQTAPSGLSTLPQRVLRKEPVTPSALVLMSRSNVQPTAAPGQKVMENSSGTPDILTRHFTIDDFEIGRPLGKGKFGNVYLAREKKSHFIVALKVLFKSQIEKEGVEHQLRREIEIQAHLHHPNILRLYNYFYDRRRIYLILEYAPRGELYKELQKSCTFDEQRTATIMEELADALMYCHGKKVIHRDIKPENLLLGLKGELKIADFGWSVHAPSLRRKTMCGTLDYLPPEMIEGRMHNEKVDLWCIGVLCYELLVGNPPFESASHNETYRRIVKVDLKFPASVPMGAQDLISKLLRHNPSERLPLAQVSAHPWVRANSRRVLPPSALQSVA
UniProt Q8WYP5: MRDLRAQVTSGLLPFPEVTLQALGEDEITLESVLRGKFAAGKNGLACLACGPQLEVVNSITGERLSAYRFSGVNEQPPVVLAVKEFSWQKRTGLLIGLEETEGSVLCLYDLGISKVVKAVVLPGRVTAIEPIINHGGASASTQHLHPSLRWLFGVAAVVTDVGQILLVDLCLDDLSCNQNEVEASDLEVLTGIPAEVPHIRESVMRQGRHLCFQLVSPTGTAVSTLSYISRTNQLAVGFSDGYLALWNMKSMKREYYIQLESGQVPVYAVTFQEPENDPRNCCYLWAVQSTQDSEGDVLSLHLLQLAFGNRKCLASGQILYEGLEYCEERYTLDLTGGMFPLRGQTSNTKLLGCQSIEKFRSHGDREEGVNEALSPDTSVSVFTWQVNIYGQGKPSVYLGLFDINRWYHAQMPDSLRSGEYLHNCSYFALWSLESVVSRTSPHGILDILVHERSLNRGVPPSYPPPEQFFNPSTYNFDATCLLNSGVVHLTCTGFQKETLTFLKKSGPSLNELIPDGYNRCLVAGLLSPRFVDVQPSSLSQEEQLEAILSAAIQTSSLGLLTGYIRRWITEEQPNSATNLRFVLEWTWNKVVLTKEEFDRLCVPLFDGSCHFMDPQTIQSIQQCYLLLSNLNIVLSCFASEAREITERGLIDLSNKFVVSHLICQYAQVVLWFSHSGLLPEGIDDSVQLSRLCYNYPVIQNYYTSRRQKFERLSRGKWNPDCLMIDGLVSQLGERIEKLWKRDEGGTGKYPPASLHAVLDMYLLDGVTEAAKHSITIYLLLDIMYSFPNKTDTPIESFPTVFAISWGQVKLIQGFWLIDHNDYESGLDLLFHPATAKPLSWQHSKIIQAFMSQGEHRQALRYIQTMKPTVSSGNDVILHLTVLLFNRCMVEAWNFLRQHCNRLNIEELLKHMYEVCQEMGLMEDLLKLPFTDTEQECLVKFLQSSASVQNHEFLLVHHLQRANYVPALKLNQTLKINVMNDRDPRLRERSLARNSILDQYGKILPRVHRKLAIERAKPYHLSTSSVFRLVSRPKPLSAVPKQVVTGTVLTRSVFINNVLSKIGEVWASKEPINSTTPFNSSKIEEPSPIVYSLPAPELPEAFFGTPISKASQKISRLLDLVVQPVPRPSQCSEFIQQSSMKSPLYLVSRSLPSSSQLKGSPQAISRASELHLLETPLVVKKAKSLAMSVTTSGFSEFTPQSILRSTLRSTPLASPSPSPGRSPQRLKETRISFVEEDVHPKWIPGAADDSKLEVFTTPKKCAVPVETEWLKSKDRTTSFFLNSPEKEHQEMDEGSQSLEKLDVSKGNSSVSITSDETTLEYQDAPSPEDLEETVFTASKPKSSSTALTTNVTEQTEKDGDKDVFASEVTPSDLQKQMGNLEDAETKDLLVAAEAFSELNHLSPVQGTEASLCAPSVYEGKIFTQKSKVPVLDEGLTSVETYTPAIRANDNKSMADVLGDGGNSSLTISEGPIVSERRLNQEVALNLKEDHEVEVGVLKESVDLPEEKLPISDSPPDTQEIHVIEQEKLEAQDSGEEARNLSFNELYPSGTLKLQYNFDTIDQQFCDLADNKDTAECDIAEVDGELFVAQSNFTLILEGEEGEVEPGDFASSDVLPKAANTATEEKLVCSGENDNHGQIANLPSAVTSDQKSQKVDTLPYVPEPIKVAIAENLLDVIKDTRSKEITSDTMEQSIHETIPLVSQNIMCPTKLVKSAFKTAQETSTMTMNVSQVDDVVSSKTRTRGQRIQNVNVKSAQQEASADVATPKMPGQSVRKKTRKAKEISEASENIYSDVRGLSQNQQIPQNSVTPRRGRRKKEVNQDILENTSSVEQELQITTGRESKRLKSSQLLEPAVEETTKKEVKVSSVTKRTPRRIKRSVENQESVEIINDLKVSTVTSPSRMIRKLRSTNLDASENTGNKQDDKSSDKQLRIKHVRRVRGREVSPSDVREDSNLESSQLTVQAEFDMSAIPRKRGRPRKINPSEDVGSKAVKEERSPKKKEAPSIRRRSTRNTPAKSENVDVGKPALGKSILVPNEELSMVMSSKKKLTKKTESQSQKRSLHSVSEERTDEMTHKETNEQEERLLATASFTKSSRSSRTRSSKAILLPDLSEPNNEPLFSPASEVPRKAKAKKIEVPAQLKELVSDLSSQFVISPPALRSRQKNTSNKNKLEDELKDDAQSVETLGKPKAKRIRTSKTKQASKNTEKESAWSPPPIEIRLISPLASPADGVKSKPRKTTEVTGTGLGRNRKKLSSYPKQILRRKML

B1: ACBD5 (acyl-CoA binding domain protein), endogenous (protein, UniProt Q5T8D3 1-534)
chain: MFQFHAGSWESWCCCCLIPADRPWDRGQHWQLEMADTRSVHETRFEAAVKVIQSLPKNGSFQPTNEMMLKFYSFYKQATEGPCKLSRPGFWDPIGRYKWDAWSSLGDMTKEEAMIAYVEEMKKIIETMPMTEKVEELLRVIGPFYEIVEDKKSGRSSDITSVRLEKISKCLEDLGNVLTSTPNAKTVNGKAESSDSGAESEEEEAQEEVKGAEQSDNDKKMMKKSADHKNLEVIVTNGYDKDGFVQDIQNDIHASSSLNGRSTEEVKPIDENLGQTGKSAVCIHQDINDDHVEDVTGIQHLTSDSDSEVYCDSMEQFGQEESLDSFTSNNGPFQYYLGGHSSQPMENSGFREDIQVPPGNGNIGNMQVVAVEGKGEVKHGGEDGRNNSGAPHREKRGGETDEFSNVRRGRGHRMQHLSEGTKGRQVGSGGDGERWGSDRGSRGSLNEQIALVLMRLQEDMQNVLQRLQKLETLTALQAKSSTSTLQTAPQPTSQRPSWWPFEMSPGVLTFAIIWPFIAQWLVYLYYQRRRRKLN
B2: RMDN2, endogenous (protein, UniProt Q96LZ7 1-410)
chain: MPYSTNKELILGIMVGTAGISLLLLWYHKVRKPGIAMKLPEFLSLGNTFNSITLQDEIHDDQGTTVIFQERQLQILEKLNELLTNMEELKEEIRFLKEAIPKLEEYIQDELGGKITVHKISPQHRARKRRLPTIQSSATSNSSEEAESEGGYITANTDTEEQSFPVPKAFNTRVEELNLDVLLQKVDHLRMSESGKSESFELLRDHKEKFRDEIEFMWRFARAYGDMYELSTNTQEKKHYANIGKTLSERAINRAPMNGHCHLWYAVLCGYVSEFEGLQNKINYGHLFKEHLDIAIKLLPEEPFLYYLKGRYCYTVSKLSWIEKKMAATLFGKIPSSTVQEALHNFLKAEELCPGYSNPNYMYLAKCYTDLEENQNALKFCNLALLLPTVTKEDKEAQKEMQKIMTSLKR

target: GST-VAPB-MSP (wild-type MSP-domain of VAPB fused to a GST-tag) (UniProt O95292); experiment: affinity purification with mass spectrometry; GST-MSP or GST on GST-Selector beads, lysates of asynchronous and of mitotic (DME) HeLa cells; eluted proteins analysed by DIA-MS; only the target purified

binding, binds:
Aurora kinase A, endogenous (from UniProt O14965 1-403) (enzyme)
Aurora kinase B, endogenous (from UniProt Q96GD4 1-344) (enzyme)
ELYS (embryonic large molecule derived from yolk sac), endogenous, HeLa (from UniProt Q8WYP5 1-2266)
B1
B2
